# Assay results from PubChem BioAssay AID2685 (National Center for Advancing Translational Sciences (NCATS), 2010).
# The list shows a part of the results. These are further read-outs of the screen, such as a control signal, another cell line or another target. No call is given for them. Compounds called inactive in the main read-out are mostly missing here. The note in brackets gives the kind of curve behind each potency; many fits are weak.
# Experiment: qHTS Assay for Lipid Storage Modulators in Drosophila S3 Cells;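 for cell number change: cells counted by Cell Tracker Red CMTPX staining in the red channel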
# Conditions: BODIPY lipid droplet fluorescence, 18-24 h; for cell number change: measured here: cell count max response, cells fed with added oleic acid
# Method in brief: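 Drosophila S3 cells got compounds at several concentrations plus oleic acid (400 uM solution). Laser-scanning cytometry with 488 nm excitation read lipid droplets at 500-530 nm and cells at 575-640 nm. Percent activity was relative to 20 uM Triacsin C.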
# [1] = measured here: cell number channel AC50, cells fed with added oleic acid
# [2] = measured here: lipid fluorescence (Fed channel) AC50, cells fed with added oleic acid
SMILES,cell number change [%],AC50 [1],AC50 [2]
O=C(c1ccc(N2CCOCC2)c([N+](=O)[O-])c1)N1CCCCC1,11,"0.231 µM [rising, full curve, poor fit]",
CC(=O)NC1=NN(C(C)=O)C(C)(CCS(=O)(=O)c2ccc(Cl)c(Cl)c2)S1 (stereo not given),-26.3,"0.206 µM [falling, full curve, poor fit]","0.461 µM [falling, full curve]"
COc1ccc(NC(=O)C2CCN(S(=O)(=O)c3ccc4c(c3)CC(C)N4C(C)=O)CC2)c(OC)c1 (stereo not given),33.1,"9.2 µM [rising, partial curve]",
CN(C)Cc1ccccc1C1(O)c2ccccc2CSc2ccccc21 (stereo not given),42.2,"29.1 µM [rising, single point]",
Cc1cccc(NC(=O)CC2S/C(=N/c3nccs3)N(C)C2=O)c1 (stereo not given),-1.61,,"4.61 µM [rising, single point]"
COc1ccc(-c2nc(CN(Cc3cnn(C)c3)C(C)C)c(C)o2)c(OC)c1,8,,"0.058 µM [falling, full curve]"
CC(=O)c1ccc(OCCCC(=O)N(CCC2=CCCCC2)c2c(N)n(Cc3ccccc3)c(=O)[nH]c2=O)cc1,33.2,"20.6 µM [rising, single point]",
CN(Cc1ccc(Cl)cc1)C(=O)c1cc(S(=O)(=O)N2CCOCC2)ccc1N1CCCC1,,,"3.26 µM [rising, single point]"
COc1ccccc1N1CCN(CCCNc2cc(=O)n(C)c(=O)n2C)CC1,6.24,"0.116 µM [rising, full curve, poor fit]",
Cc1ccc(NC(=O)Cn2sc3nc(C)cc(C)c3c2=O)c(Cl)c1,-66.1,,"1.64 µM [falling, partial curve, poor fit]"
COc1ccc(CCNC(=O)C(=O)NCC2OCCN2S(=O)(=O)c2ccc(OC)c(OC)c2)cc1OC (stereo not given),-2.02,,"6.51 µM [rising, single point]"
O=C(CNC(=O)C1CCCCC1)Nc1ccc(Cl)cc1,-12.2,,"20.6 µM [rising, partial curve]"
Cc1ccc(S(=O)(=O)N2CCCC2C(=O)NCCc2nc3ccccc3[nH]2)cc1 (stereo not given),-26.9,,"29.1 µM [falling, single point]"
COc1ccc(C(=O)C[n+]2ccc(N(C)C)cc2)cc1,40.4,,"29.1 µM [rising, single point]"
O=C1NC2(CCCCC2)C(=O)N1c1ccccc1,,"0.58 µM [falling, single point]",
COc1ccc(-c2csc(=Nc3ccccc3)n2CCO)cc1,-32.7,"32.6 µM [falling, single point]","18.4 µM [falling, single point]"
CC1CC(C)CN(C(=O)c2ccc3c(c2)OCCO3)C1 (stereo not given),-16.7,,
COc1ccccc1N1C[C@@H]2C[C@@H](c3ccco3)N3CCC[C@@]23C1=O,-16.1,,"5.17 µM [falling, full curve, poor fit]"
O=C(CNC(=O)c1cccc(Br)c1)N/N=C/c1cccs1,16.1,,"29.1 µM [rising, single point]"

# 3 entries from above, ordered by length of the SMILES, low to high.
SMILES,cell number change [%],AC50 [1],AC50 [2]
COc1ccccc1N1CCN(CCCNc2cc(=O)n(C)c(=O)n2C)CC1,6.24,"0.116 µM [rising, full curve, poor fit]",
O=C(c1ccc(N2CCOCC2)c([N+](=O)[O-])c1)N1CCCCC1,11,"0.231 µM [rising, full curve, poor fit]",
COc1ccccc1N1C[C@@H]2C[C@@H](c3ccco3)N3CCC[C@@]23C1=O,-16.1,,"5.17 µM [falling, full curve, poor fit]"

# (next part)

SMILES,cell number change [%],AC50 [1],AC50 [2]
CN(C)Cc1c(C(=O)N/N=C/c2cccc(OCc3c(F)cccc3Cl)c2)nnn1-c1nonc1N,,"1.03 µM [falling, partial curve]","29.1 µM [falling, single point]"
COC(=O)NNC(=O)CCCOc1ccc(Cl)cc1Cl,,"1.84 µM [rising, partial curve, poor fit]",
C/C=C(/C)C(=O)O[C@@H]1[C@H](OC(=O)C=C(C)C)c2c(ccc3ccc(=O)oc23)OC1(C)C,11.6,,"0.00651 µM [falling, full curve, poor fit]"
COc1ccccc1C(=O)O/N=C(/C)c1ccc(N2C(=O)C3CCCCC3C2=O)cc1 (stereo not given),8.47,"6.51 µM [rising, single point]",
COc1cccc(C(C(=O)NC2CCCCC2)N(C(=O)c2cccs2)c2ccc3c(c2)OCO3)c1 (stereo not given),19.4,,"7.31 µM [falling, single point]"
O=C(COC(=O)c1cnccn1)NCCc1ccccc1,-35.5,"29.1 µM [falling, single point]",
CCC1CCC/C1=N\NC(=O)c1cc(C)[nH]n1 (stereo not given),41.9,"18.4 µM [rising, partial curve, poor fit]","18.4 µM [rising, single point]"
CCCC1CCC(C(=O)Nn2cnc3ccccc3c2=O)CC1 (stereo not given),,,"6.51 µM [falling, partial curve, poor fit]"
Cc1ccc(-c2nc(C3CCN(S(C)(=O)=O)CC3)no2)cc1,12.5,,
CCN(CCCNC(=O)c1cn(CC)c2ccc(S(=O)(=O)N(C)C)cc2c1=O)c1cccc(C)c1,17.7,,"0.411 µM [rising, full curve]"
OCCC1CN(CC#Cc2ccccc2)CCN1Cc1ccccc1F (stereo not given),-7.14,,
CCN1CCc2c(sc(NC(=O)Nc3ccc(Cl)c(Cl)c3)c2C(N)=O)C1,-2.09,,"0.517 µM [falling, full curve]"
O=C(CN(Cc1ccc(Cl)cc1)C(=O)CNS(=O)(=O)c1ccc(F)cc1)NCC1CCCO1 (stereo not given),2.56,,"0.116 µM [rising, single point]"
COc1ccc([C@@H]2CC=C(C(=O)O)[C@H](c3cccc(Cl)c3)N2S(=O)(=O)c2ccc(Cl)cc2)cc1,,,"18.4 µM [rising, single point]"
Cc1ccc(C(NC(=O)/C=C\c2ccc3c(c2)OCO3)C(=O)Nc2ccc3c(c2)OCO3)cc1 (stereo not given),-51.2,"20.6 µM [falling, single point]","2.91 µM [falling, partial curve]"
CCc1c(C)sc(NC(=O)c2cc(C)no2)c1C#N,,"4.11 µM [falling, single point]",
Oc1ccccc1/C=N/NC(=S)NCCc1ccccc1,-60.1,"20.6 µM [falling, partial curve]","32.6 µM [falling, single point]"
COc1ccc(C2(C)NC(=O)N(CC(=O)Nc3ccc(C)cc3Br)C2=O)cc1OC (stereo not given),0.901,,"11.6 µM [rising, single point]"
